This note sets out measurements from PMC5013874.

Experiment [1] has as its target GFP-Rab1 (human). The experiment can be described thus: co-IP.
In experiment [2] the target is GFP-Rab11 (human). Nature of the experiment: co-IP.

No constants are given. Whether binding was seen depends on the method and setting. Binding seen in cells or lysates may run through a third protein.

B1: EspG:4xHA (protein, UniProt Q7DB50 1-381)
chain: MINGLNNDSASLVLDAAMKVNSGFKKSWDEMSCAEKLFKVLSFGLWNPTYSRSERQSFQELLTVLEPVYPLPNELGRVSARFSDGSSLRISVTNSELVEAEIRTANNEKITVLLESNEQNRLLQSLPIDRHMPYIQVHRALSEMDLTDTTSMRNLLGFTSKLSTTLIPHNAQTDPLSGPTPFSSIFMDTCRGLGNAKLSLNGVDIPANAQKLLRDALGLKDTHSSPTRNVIDHGISRHDAEQIARESSGSDKQKAEVVEFLCHPEAATAICSAFYQSFNVPALTLTHERISKASEYNAERSLDTPNACINISISQSSDGNIYVTSHTGVLIMAPEDRPNEMGMLTNRTSYEVPQGVKCIIDEMVSALQPRYAASETYLQNT
Regarding B1, the binding result in experiment [1] and in experiment [2] was “no binding” throughout.
